Data published in article PMC4549274.
These are yes or no findings as the source states them, for the method shown. Binding calls can cover weak binding; strength is not graded here.

Target: CrRbcX-IIa(37–156) (Chlamydomonas reinhardtii)
Assay: crystal structure; fusion protein of CrRbcL 462–473 and CrRbcX-IIa(37–156) on one chain, hanging drop at 20°C, 0.1 M Tris-HCl pH 8.5, 25% PEG2000 monomethyl ether; molecular replacement, 1.97 Å; both purified

## WKEIKFEFDTID [C-terminal recognition motif of CrRbcL, residues 462–473]
  binding: binds
